Results are given in words; binding and its absence hold for the method and conditions named. In cells and extracts the contact can be indirect. Some binding calls cover weakened binding; strength is not graded here.
B1: Notch 2 (receptor, UniProt Q04721 1609-2471, looked up)
receptor chain: SLPGEQEQEVAGSKVFLEIDNRQCVQDSDHCFKNTDAAAALLASHAIQGTLSYPLVSVVSESLTPERTQLLYLLAVAVVIILFIILLGVIMAKRKRKHGSLWLPEGFTLRRDASNHKRREPVGQDAVGLKNLSVQVSEANLIGTGTSEHWVDDEGPQPKKVKAEDEALLSEEDDPIDRRPWTQQHLEAADIRRTPSLALTPPQAEQEVDVLDVNVRGPDGCTPLMLASLRGGSSDLSDEDEDAEDSSANIITDLVYQGASLQAQTDRTGEMALHLAARYSRADAAKRLLDAGADANAQDNMGRCPLHAAVAADAQGVFQILIRNRVTDLDARMNDGTTPLILAARLAVEGMVAELINCQADVNAVDDHGKSALHWAAAVNNVEATLLLLKNGANRDMQDNKEETPLFLAAREGSYEAAKILLDHFANRDITDHMDRLPRDVARDRMHHDIVRLLDEYNVTPSPPGTVLTSALSPVICGPNRSFLSLKHTPMGKKSRRPSAKSTMPTSLPNLAKEAKDAKGSRRKKSLSEKVQLSESSVTLSPVDSLESPHTYVSDTTSSPMITSPGILQASPNPMLATAAPPAPVHAQHALSFSNLHEMQPLAHGASTVLPSVSQLLSHHHIVSPGSGSAGSLSRLHPVPVPADWMNRMEVNETQYNEMFGMVLAPAEGTHPGIAPQSRPPEGKHITTPREPLPPIVTFQLIPKGSIAQPAGAPQPQSTCPPAVAGPLPTMYQIPEMARLPSVAFPTAMMPQQDGQVAQTILPAYHPFPASVGKYPTPPSQHSYASSNAAERTPSHSGHLQGEHPYLTPSPESPDQWSSSSPHSASDWSDVTTSPTPGGAGGGQRGPGTHMSEPPHNNMQVYA

The chains behind the UniProt entries cited, without tags or fusion partners. Where a name states a change or a piece, a line headed by the entry shows the natural chain unless it says otherwise. Residues count along the entry.
UniProt O14672: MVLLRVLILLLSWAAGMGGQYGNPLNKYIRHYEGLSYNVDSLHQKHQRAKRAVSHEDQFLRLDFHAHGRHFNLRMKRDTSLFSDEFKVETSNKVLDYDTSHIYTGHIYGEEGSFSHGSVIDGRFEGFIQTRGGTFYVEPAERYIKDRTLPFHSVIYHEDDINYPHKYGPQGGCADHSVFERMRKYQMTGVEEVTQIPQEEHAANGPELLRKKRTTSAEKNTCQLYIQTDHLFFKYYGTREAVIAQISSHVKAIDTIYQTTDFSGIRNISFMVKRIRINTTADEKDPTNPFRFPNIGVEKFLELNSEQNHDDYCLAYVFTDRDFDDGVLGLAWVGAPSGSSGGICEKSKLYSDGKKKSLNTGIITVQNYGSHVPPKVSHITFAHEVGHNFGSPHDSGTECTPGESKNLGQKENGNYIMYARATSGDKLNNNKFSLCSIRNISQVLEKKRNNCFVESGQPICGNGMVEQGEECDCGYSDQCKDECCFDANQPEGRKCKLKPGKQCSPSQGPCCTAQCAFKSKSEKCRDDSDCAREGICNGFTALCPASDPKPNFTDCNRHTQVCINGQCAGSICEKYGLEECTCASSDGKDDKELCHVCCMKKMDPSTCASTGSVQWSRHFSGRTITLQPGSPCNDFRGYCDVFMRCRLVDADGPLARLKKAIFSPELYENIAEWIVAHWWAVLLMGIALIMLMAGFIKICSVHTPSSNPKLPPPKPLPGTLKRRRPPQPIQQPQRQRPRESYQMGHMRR
UniProt P46531, residues 1665-2555: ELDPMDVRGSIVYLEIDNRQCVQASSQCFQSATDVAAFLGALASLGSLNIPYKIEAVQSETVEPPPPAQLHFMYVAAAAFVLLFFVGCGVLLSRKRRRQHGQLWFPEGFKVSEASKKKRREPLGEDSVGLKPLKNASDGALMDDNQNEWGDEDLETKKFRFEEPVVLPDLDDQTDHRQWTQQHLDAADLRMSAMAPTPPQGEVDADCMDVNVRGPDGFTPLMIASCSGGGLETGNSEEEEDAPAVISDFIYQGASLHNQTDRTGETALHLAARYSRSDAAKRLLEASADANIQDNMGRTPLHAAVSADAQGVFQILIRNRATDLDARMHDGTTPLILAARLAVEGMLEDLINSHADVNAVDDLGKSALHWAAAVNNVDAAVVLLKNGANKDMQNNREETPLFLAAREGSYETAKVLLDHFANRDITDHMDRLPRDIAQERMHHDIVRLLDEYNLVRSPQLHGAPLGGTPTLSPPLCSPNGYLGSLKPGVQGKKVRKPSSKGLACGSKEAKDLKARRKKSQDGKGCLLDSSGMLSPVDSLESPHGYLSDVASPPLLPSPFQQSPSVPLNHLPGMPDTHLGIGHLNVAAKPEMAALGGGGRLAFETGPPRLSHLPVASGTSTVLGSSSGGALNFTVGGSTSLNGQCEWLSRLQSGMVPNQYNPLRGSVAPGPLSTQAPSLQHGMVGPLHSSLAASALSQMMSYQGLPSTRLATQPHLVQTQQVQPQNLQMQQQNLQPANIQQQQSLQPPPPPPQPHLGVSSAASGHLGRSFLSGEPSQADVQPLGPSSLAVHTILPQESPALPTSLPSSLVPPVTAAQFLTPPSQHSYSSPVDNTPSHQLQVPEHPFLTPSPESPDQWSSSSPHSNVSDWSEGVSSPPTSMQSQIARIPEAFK

Biological target: human ADAM10, endogenous full length (human) (UniProt O14672)
Experiment: co-immunoprecipitation with ADAM10 from LIM1215 lysate by 8C7 or 4A11, Western blot

Molecule | binding
Notch 1 (from UniProt P46531) (receptor) | binds
B1 | binds

Reference: patent publication US20190105405A1 (MONASH UNIVERSITY, published 2019)
